According to the supplement of paper PMC10689618:
Where a name gives a salt, the structure may show the parent alone. The list shows a part of the results. Single values are uncertain, as repeats are few or missing.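 Labelled rat cortical synaptosomes were engulfed by primary human fetal astrocytes. Engulfment equaled a red/green ratio, corrected for calcein live-cell signal and normalized to the plate median. Compounds were toxic when calcein dropped over 30%, and reduced phagocytosis when below 70% of the median above 5 µM.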

Experiments:
Conditions in all cases: 24 h
Human fetal astrocytes [1] = assay: loss of total cells relative to no-compound high-control median (toxicity); higher = more toxic (fewer cells)
Human fetal astrocytes [2] = assay: as above; remark: listed apart in the source
Human fetal astrocytes [3] = assay: synaptosome phagocytosis (pHrodo/calcein intensity ratio) relative to plate median of data wells; higher = more phagocytosis
Human fetal astrocytes [4] = assay: as above; remark: listed apart in the source

Row | SMILES | loss of total cells (Human fetal astrocytes [1]; 1.39 µM) | loss of total cells (Human fetal astrocytes [1]; 2.78 µM) | loss of total cells (Human fetal astrocytes [1]; 5.56 µM) | loss of total cells (Human fetal astrocytes [1]; 11.11 µM) | loss of total cells (Human fetal astrocytes [1]; 22.22 µM) | loss of total cells (Human fetal astrocytes [2]; 1.39 µM) | loss of total cells (Human fetal astrocytes [2]; 2.78 µM) | loss of total cells (Human fetal astrocytes [2]; 5.56 µM) | loss of total cells (Human fetal astrocytes [2]; 11.11 µM) | loss of total cells (Human fetal astrocytes [2]; 22.22 µM) | synaptosome phagocytosis (Human fetal astrocytes [3]; 1.39 µM) | synaptosome phagocytosis (Human fetal astrocytes [3]; 2.78 µM) | synaptosome phagocytosis (Human fetal astrocytes [3]; 5.56 µM) | synaptosome phagocytosis (Human fetal astrocytes [3]; 11.11 µM) | synaptosome phagocytosis (Human fetal astrocytes [3]; 22.22 µM) | synaptosome phagocytosis (Human fetal astrocytes [4]; 1.39 µM) | synaptosome phagocytosis (Human fetal astrocytes [4]; 2.78 µM) | synaptosome phagocytosis (Human fetal astrocytes [4]; 5.56 µM) | synaptosome phagocytosis (Human fetal astrocytes [4]; 11.11 µM) | synaptosome phagocytosis (Human fetal astrocytes [4]; 22.22 µM)
1 | CCN(CC)CCOC(=O)C1(C2CCCCC2)CCCCC1 [Dicyclomine hydrochloride] | 14.6% | -2.6% | 12.3% | -7.6% | 4.8% | -0.9% | -21.4% | -0.7% | 4.3% | -24.6% | 114% | 109% | 105% | 73.5% | 70.5% | 105% | 109% | 107% | 95.4% | 106%
2 | CC(C)NCC(O)COc1ccc(CC(N)=O)cc1 (racemic) [(±)-Atenolol] | 7% | -11.4% | -11.5% | -7.6% | 2.6% | -34% | -0.9% | -12.9% | -23.4% | 6.8% | 100% | 82% | 78.5% | 89.4% | 96.9% | 143% | 120% | 102% | 96.2% | 127%
3 | CC(=O)OCC1=C(C(=O)O)N2C(=O)[C@@H](NC(=O)Cc3cccs3)[C@H]2SC1 [Cephalothin sodium] | 3.7% | -11.7% | -14.3% | -11.2% | -13.2% | -10% | -8.8% | -9.9% | -27.3% | 8.5% | 114% | 100% | 95.6% | 111% | 131% | 94.5% | 117% | 114% | 129% | 119%
4 | Cc1cc(C(C)(C)C)c(O)c(C)c1CC1=NCCN1 [Oxymetazoline hydrochloride] | -22.3% | 10.4% | 7% | 0% | 11.2% | 4.1% | -6.4% | -3.3% | -3.1% | 21% | 110% | 113% | 106% | 81.8% | 89.8% | 95.7% | 129% | 93.2% | 122% | 112%
5 | CC(CN(C)C)CN1c2ccccc2CCc2ccccc21 (stereo not given) [Trimipramine maleate] | -3.4% | -29.6% | 0% | -12.6% | -13.2% | -38.7% | -34.9% | 19.3% | 22.6% | 2.8% | 89.4% | 65.4% | 103% | 89.1% | 64.1% | 91.5% | 79.7% | 92.4% | 87.4% | 93.2%
6 | Cc1ccc(N(CC2=NCCN2)c2cccc(O)c2)cc1 [Phentolamine mesylate] | -9% | -30.8% | -9.6% | 6.5% | -0.8% | -12.8% | -9.2% | -4.2% | -7.8% | -32.5% | 90.8% | 99.5% | 59% | 67.9% | 53.9% | 113% | 93.3% | 124% | 81.8% | 86.5%
7 | O=c1c(O)c(-c2cc(O)c(O)c(O)c2)oc2cc(O)cc(O)c12 [Myricetin] | 7.1% | 10.4% | 5.2% | 16.2% | 21.5% | -20.5% | -3.2% | 11.7% | 34.5% | 30.4% | 88.5% | 121% | 115% | 89.9% | 126% | 109% | 98.2% | 115% | 95.5% | 85.7%
8 | NNc1nncc2ccccc12 [Hydralazine hydrochloride] | 2.9% | -11.1% | -3.3% | -10.3% | 2.4% | -2.1% | -24.7% | -8.4% | -8.4% | -0.9% | 92.1% | 108% | 108% | 85.6% | 59% | 126% | 106% | 100% | 114% | 118%
9 | O=C1CC2(CCCC2)CC(=O)N1CCCCN1CCN(c2ncccn2)CC1 [Buspirone hydrochloride] | -7.3% | -5.1% | -32.7% | 3.1% | -7.1% | -24.3% | 21.3% | -29% | 4.5% | -4.8% | 76.4% | 114% | 102% | 106% | 90.1% | 129% | 107% | 71.7% | 92.6% | 112%
10 | C[N+](C)(C)CCCCCC[N+](C)(C)C [Hexamethonium dichloride] | -1.3% | -6% | 3.3% | -21.1% | 0% | 11.9% | 1.1% | 10.1% | 5.4% | 0% | 88.6% | 79.4% | 83.9% | 154% | 151% | 89.5% | 107% | 102% | 90.9% | 108%
11 | CC12CC3CC(C)(C1)CC(N)(C3)C2 [Memantine hydrochloride] | -5.2% | -8.6% | 6.1% | 8.6% | -8.4% | -38.2% | -2.1% | -14.1% | -32.8% | 7.4% | 82% | 94.8% | 92.2% | 85% | 68.5% | 97.3% | 103% | 105% | 61% | 96.7%
12 | CCOC(=O)N1CCC(=C2c3ccc(Cl)cc3CCc3cccnc32)CC1 [Loratadine] | – | – | – | – | – | – | – | – | – | – | 106% | 100% | 101% | 115% | 85.2% | 105% | 79.8% | 78.6% | 64.1% | 94%
13 | Clc1cccc(Cl)c1NC1=NCCN1 [Clonidine hydrochloride] | -18.7% | -6.9% | -18% | -10.3% | 13.9% | 15.7% | -15.9% | -3.5% | 4.9% | 27.1% | 109% | 110% | 92.7% | 98.5% | 95.6% | 114% | 98% | 113% | 113% | 140%
14 | N=C(N)NCCCCN [Agmatine sulfate] | -19.1% | -13.8% | -2.3% | -8.5% | -3.4% | -16.4% | -5.4% | -24.9% | -0.7% | 5.2% | 91.3% | 81.8% | 122% | 113% | 88.1% | 89% | 97.9% | 88.5% | 86.5% | 83.9%
15 | O=c1c(-c2ccc(O)cc2)coc2cc(O)cc(O)c12 [Genistein] | 12.1% | -2.6% | 11.5% | -4% | 11.2% | -6.9% | -5.3% | 30.5% | -14.2% | -1.9% | 94.3% | 89.2% | 137% | 73.7% | 112% | 111% | 92.3% | 121% | 99.8% | 84.2%
16 | CC(C)(C)CC(C)(C)c1ccc(OCCOCC[N+](C)(C)Cc2ccccc2)cc1 | – | – | – | – | – | – | – | – | – | – | 50.8% | 29.2% | 47.7% | 26.2% | 0% | – | – | – | – | –
17 | CCCCNc1cc(C(=O)O)cc(S(N)(=O)=O)c1Oc1ccccc1 [Bumetanide] | -12.5% | -9% | -5.1% | -9.4% | -10.2% | -0.8% | -11.9% | 12.9% | 10.9% | -0.6% | 113% | 124% | 104% | 88.6% | 95.5% | 95.1% | 133% | 125% | 96.4% | 118%
18 | CC(C(=O)O)c1cccc(C(=O)c2ccccc2)c1 (stereo not given) [Ketoprofen] | – | – | – | – | – | – | – | – | – | – | 107% | 81% | 110% | 80.8% | 107% | 98.7% | 94.9% | 90.9% | 106% | 122%
19 | CN(C)CCCN1c2ccccc2Sc2ccc(C(F)(F)F)cc21 [Triflupromazine hydrochloride] | – | – | – | – | – | – | – | – | – | – | 66.8% | 90.7% | 62% | 49% | 44.2% | 85.7% | 82.5% | 59.6% | 78.7% | 53.3%
20 | Cc1cccc(C)c1OCC(C)N (stereo not given) [Mexiletene hydrochloride] | -22.3% | -5.9% | 17.4% | 37.1% | 22.4% | -36.3% | 15.9% | -17.4% | 48.9% | 7.8% | 113% | 149% | 79.4% | 122% | 102% | 106% | 95.9% | 114% | 112% | 102%
21 | O=C(O)C1=C[C@@H](O)[C@@H](O)[C@H](O)C1 | – | – | – | – | – | – | – | – | – | – | 98.2% | 90.1% | 139% | 111% | 127% | – | – | – | – | –
22 | O=C1OC(=O)[C@H]2[C@@H]1[C@@H]1CC[C@H]2O1 [Norcantharidin] | -3.3% | 5.9% | -2.3% | 8.6% | 4.7% | 2.5% | 0.4% | 10.3% | 16.9% | 8.9% | 90.6% | 102% | 129% | 122% | 118% | 110% | 120% | 139% | 77.3% | 102%
23 | O=C(O)Cc1ccccc1Nc1c(Cl)cccc1Cl [Diclofenac sodium] | 0.4% | -23.9% | 14% | -9.4% | 18.4% | 5.6% | -18.6% | 11.1% | 15.3% | 11.2% | 113% | 119% | 93.1% | 98.2% | 107% | 117% | 121% | 121% | 111% | 117%
24 | CC(CN1c2ccccc2Sc2ccccc21)N(C)C (stereo not given) [Promethazine hydrochloride] | -16.6% | 10.4% | 11.7% | 21% | 23.4% | -6.6% | 2.1% | -2.1% | -10.9% | 5.1% | 88.9% | 111% | 82.1% | 80.5% | 60% | 84.9% | 91.7% | 94.3% | 78.8% | 64.8%
25 | COc1cc2nc(N3CCN(C(=O)C4COc5ccccc5O4)CC3)nc(N)c2cc1OC (stereo not given) [Doxazosin mesylate] | 4.6% | 6% | 4.9% | -4% | 9.6% | -35.9% | 7.3% | -17.6% | -8.4% | -6.3% | 94% | 107% | 88.6% | 88.7% | 86.3% | 92.3% | 62.8% | 82.1% | 77.3% | 90.5%
26 | COC(=O)C1=C(C)NC(C)=C(C(=O)OCCN(C)Cc2ccccc2)C1c1cccc([N+](=O)[O-])c1 (stereo not given) [Nicardipine hydrochloride] | -20.4% | 0.5% | -6.1% | -10.5% | 0.9% | -19.9% | -14.9% | 0.3% | -14.1% | -1.1% | 70.6% | 53.2% | 91.5% | 66.1% | 53.4% | 77.1% | 95.1% | 103% | 87.3% | 47.3%
27 | NC(=O)c1ncn([C@@H]2O[C@H](CO)[C@@H](O)[C@H]2O)n1 [Ribavirin] | -4% | -23.7% | -14.6% | 1.1% | -7.4% | -18.5% | 33.3% | -1.9% | 40.3% | -3.4% | 73.4% | 105% | 75.4% | 135% | 88% | 94.9% | 103% | 131% | 119% | 106%
28 | CCC(C)(C)C(=O)O[C@H]1C[C@@H](C)C=C2C=C[C@H](C)[C@H](CC[C@@H]3C[C@@H](O)CC(=O)O3)[C@H]21 | – | – | – | – | – | – | – | – | – | – | 149% | 115% | 71.5% | 91.9% | 76.8% | – | – | – | – | –
29 | O=C(O)C1=CC(=C(c2ccc(O)c(C(=O)O)c2)c2ccc(O)c(C(=O)O)c2)C=CC1=O [Aurintricarboxylic acid] | -2.6% | -17.1% | -0.5% | 7.6% | 26.7% | 10.7% | 44.4% | 38.1% | 45.3% | 37% | 138% | 175% | 176% | 134% | 140% | 126% | 102% | 122% | 150% | 130%

In the list so far, 5 have nitrogen in an aromatic ring.
Row | SMILES | loss of total cells (Human fetal astrocytes [1]; 1.39 µM) | loss of total cells (Human fetal astrocytes [1]; 2.78 µM) | loss of total cells (Human fetal astrocytes [1]; 5.56 µM) | loss of total cells (Human fetal astrocytes [1]; 11.11 µM) | loss of total cells (Human fetal astrocytes [1]; 22.22 µM) | loss of total cells (Human fetal astrocytes [2]; 1.39 µM) | loss of total cells (Human fetal astrocytes [2]; 2.78 µM) | loss of total cells (Human fetal astrocytes [2]; 5.56 µM) | loss of total cells (Human fetal astrocytes [2]; 11.11 µM) | loss of total cells (Human fetal astrocytes [2]; 22.22 µM) | synaptosome phagocytosis (Human fetal astrocytes [3]; 1.39 µM) | synaptosome phagocytosis (Human fetal astrocytes [3]; 2.78 µM) | synaptosome phagocytosis (Human fetal astrocytes [3]; 5.56 µM) | synaptosome phagocytosis (Human fetal astrocytes [3]; 11.11 µM) | synaptosome phagocytosis (Human fetal astrocytes [3]; 22.22 µM) | synaptosome phagocytosis (Human fetal astrocytes [4]; 1.39 µM) | synaptosome phagocytosis (Human fetal astrocytes [4]; 2.78 µM) | synaptosome phagocytosis (Human fetal astrocytes [4]; 5.56 µM) | synaptosome phagocytosis (Human fetal astrocytes [4]; 11.11 µM) | synaptosome phagocytosis (Human fetal astrocytes [4]; 22.22 µM)
8 | NNc1nncc2ccccc12 [Hydralazine hydrochloride] | 2.9% | -11.1% | -3.3% | -10.3% | 2.4% | -2.1% | -24.7% | -8.4% | -8.4% | -0.9% | 92.1% | 108% | 108% | 85.6% | 59% | 126% | 106% | 100% | 114% | 118%
9 | O=C1CC2(CCCC2)CC(=O)N1CCCCN1CCN(c2ncccn2)CC1 [Buspirone hydrochloride] | -7.3% | -5.1% | -32.7% | 3.1% | -7.1% | -24.3% | 21.3% | -29% | 4.5% | -4.8% | 76.4% | 114% | 102% | 106% | 90.1% | 129% | 107% | 71.7% | 92.6% | 112%
12 | CCOC(=O)N1CCC(=C2c3ccc(Cl)cc3CCc3cccnc32)CC1 [Loratadine] | – | – | – | – | – | – | – | – | – | – | 106% | 100% | 101% | 115% | 85.2% | 105% | 79.8% | 78.6% | 64.1% | 94%
25 | COc1cc2nc(N3CCN(C(=O)C4COc5ccccc5O4)CC3)nc(N)c2cc1OC (stereo not given) [Doxazosin mesylate] | 4.6% | 6% | 4.9% | -4% | 9.6% | -35.9% | 7.3% | -17.6% | -8.4% | -6.3% | 94% | 107% | 88.6% | 88.7% | 86.3% | 92.3% | 62.8% | 82.1% | 77.3% | 90.5%
27 | NC(=O)c1ncn([C@@H]2O[C@H](CO)[C@@H](O)[C@H]2O)n1 [Ribavirin] | -4% | -23.7% | -14.6% | 1.1% | -7.4% | -18.5% | 33.3% | -1.9% | 40.3% | -3.4% | 73.4% | 105% | 75.4% | 135% | 88% | 94.9% | 103% | 131% | 119% | 106%
